Measured values: article doi:10.1101/2022.04.17.488518
Results are given in words; binding and its absence hold for the method and conditions named. Binding seen in cells or lysates may run through a third protein. Some binding calls cover weakened binding; strength is not graded here. Sequences can lack the tags named with a protein.

The chains behind the UniProt entries cited, without tags or fusion partners.
UniProt C0Z2L5: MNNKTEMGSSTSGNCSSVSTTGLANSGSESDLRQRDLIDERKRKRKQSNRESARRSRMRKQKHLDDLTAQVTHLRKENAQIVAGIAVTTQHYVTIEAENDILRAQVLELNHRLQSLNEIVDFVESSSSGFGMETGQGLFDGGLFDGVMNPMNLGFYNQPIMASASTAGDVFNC

Legend:
[1] = biological target: T1, HaloTag-fused bZIP10 (Group C bZIP) (Arabidopsis thaliana) (UniProt O22763); assay: pull-down
T1 sequence: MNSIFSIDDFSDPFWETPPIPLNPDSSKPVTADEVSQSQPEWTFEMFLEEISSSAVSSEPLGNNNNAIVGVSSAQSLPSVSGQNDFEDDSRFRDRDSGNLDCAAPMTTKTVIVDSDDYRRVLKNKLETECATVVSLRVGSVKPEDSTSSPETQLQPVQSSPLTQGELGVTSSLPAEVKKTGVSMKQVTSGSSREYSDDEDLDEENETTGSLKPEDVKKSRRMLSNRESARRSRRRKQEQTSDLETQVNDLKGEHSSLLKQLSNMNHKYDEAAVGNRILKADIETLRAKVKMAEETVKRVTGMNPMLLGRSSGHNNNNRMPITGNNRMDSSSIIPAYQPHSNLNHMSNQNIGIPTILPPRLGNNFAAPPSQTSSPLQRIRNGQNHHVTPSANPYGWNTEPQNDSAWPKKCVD

[2] = biological target: T2, HaloTag-fused bZIP63 (Group C bZIP) (Arabidopsis thaliana) (UniProt B9DGI8); assay: pull-down
T2 sequence: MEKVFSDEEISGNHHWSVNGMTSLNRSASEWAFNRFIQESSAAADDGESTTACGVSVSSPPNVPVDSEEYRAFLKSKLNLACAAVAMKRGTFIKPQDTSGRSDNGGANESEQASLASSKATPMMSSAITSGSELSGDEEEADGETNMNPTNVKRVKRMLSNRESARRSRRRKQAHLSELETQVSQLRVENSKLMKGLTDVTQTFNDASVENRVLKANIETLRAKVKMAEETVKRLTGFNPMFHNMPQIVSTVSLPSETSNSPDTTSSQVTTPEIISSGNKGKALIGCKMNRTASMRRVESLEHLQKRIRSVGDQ

binding [1]: binds
binding [2]: binds
Substance: SBPTag-fused bZIP44 (Group S1 bZIP) (from UniProt C0Z2L5 1-173)
